Reference: publication PMC11405683
No constants are given. Whether binding was seen depends on the method and setting. In cells and extracts the contact can be indirect. Some results given as binding are weak or reduced against the parent protein; the word gives no strength. Where a sequence is shown, tags or fusion partners need not be part of it. Values belong to the binder of their own block, whether it stands above or below them.

Chains of the proteins cited; added tags and fusions are not shown. Residues count along the entry.
UniProt P20163, residues 18-657: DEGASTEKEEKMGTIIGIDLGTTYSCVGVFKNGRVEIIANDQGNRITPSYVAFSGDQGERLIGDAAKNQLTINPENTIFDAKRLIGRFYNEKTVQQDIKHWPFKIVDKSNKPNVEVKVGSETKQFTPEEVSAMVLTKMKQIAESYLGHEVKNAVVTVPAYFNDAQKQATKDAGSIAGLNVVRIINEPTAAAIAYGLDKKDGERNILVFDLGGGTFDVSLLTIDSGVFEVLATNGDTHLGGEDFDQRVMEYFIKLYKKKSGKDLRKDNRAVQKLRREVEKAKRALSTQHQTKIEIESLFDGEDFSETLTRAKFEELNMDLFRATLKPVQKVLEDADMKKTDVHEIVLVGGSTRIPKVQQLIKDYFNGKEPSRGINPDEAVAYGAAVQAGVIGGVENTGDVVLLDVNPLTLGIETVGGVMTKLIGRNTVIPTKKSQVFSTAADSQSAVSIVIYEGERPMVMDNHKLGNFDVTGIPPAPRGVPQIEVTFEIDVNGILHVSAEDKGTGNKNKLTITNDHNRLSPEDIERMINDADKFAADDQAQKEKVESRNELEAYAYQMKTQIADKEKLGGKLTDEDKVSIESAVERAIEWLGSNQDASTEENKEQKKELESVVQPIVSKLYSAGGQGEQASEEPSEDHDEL
UniProt P54811: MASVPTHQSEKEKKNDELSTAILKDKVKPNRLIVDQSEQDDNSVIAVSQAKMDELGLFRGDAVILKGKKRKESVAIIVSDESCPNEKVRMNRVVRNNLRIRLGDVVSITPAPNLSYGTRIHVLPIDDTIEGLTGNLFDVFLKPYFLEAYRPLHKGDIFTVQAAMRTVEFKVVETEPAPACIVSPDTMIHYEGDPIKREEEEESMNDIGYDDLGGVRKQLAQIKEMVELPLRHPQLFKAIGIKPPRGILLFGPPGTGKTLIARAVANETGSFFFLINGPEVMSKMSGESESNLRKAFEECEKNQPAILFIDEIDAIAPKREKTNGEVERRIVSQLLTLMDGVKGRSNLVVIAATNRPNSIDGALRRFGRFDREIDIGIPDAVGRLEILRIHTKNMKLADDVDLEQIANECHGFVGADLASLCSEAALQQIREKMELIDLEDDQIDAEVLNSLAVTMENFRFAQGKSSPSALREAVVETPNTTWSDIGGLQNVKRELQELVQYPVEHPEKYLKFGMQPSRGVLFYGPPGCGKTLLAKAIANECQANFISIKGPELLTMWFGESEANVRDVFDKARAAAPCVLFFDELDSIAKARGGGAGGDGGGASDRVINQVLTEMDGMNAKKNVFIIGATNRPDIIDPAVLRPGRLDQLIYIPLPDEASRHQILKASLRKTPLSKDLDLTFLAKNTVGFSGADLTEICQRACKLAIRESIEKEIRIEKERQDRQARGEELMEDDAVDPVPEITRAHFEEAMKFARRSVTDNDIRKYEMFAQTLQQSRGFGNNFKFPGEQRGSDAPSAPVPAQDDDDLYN

Experiments:
HSP-4::GFP (C. elegans) = HSP-4::GFP (C. elegans) (UniProt P20163); experiment: co-IP; HEK293T cells co-transfected; lysis buffer 150 mM NaCl, 50 mM Tris pH 7.4, 0.5% Triton X-100; HSP-4::GFP held on GFP-Trap magnetic beads at 4 °C overnight, five washes, acidic glycine elution; anti-Flag blot for the partner
[1] = target: P97(CDC-48.1)::GFP::HA::6×His (C. elegans) (UniProt P54811); experiment: co-IP; HEK293T cells co-expressing TRA-2 and P97::GFP::HA::6×His, with or without MG132 (10 μM, 8 h); P97 held on GFP-Trap beads, five washes; anti-Flag blot for TRA-2

- binding (HSP-4::GFP (C. elegans)): no binding
B1: 3×Flag::FEM-3 (protein, UniProt P34691 1-388)
chain: MEVDPGSDDVEADRETRAQKLKLKRNVKFRAQMRRFDEYCGVTNLTVDDLNWPLISGIPLQRQRLTGATYYDDSLLDQNPWDEFSIDRFLEITSIQLITAGAGYERNDEITRFVFQRTMKTIVTYCNFMYDLARRNGKVQITRFELQDLIHRDEFRFYMYFRQFLPNPDPNCTAFSNHYTSLLHTLYFNIPGMPQFWNNSQMYNYAATRGQRLVQNIAAFYPPEYFWNEDESKYHTTFVVPRGTEFSKFYARRFHEALGMPPLENEIITVLDWLAKLCILEIVYHTTIWCDITGFGGLPRIEHYRLAMENVEDIIFDLAIDDFSISRLQLQISPFEISRYSPLDVSGYYETIKRKKDIEEYQNRFYEVHYSDDVRIMNVYATDCSRKR

- binding [1]: binds
- binding (HSP-4::GFP (C. elegans)): binds
B2: TRA-2::Flag::HA (receptor, UniProt P34709 32-1475)
chain: IDYQEKSIFPSFVSQGFFETRTNNEEYIIEKIAQTQENGVDMRSTLHFTQHGYLLNNISNLKIKFRQKTYTLNDVCFKPHITIFQQSSSSDQNEYPHYIQRLLLEMQRLSPCLIVTPLNCFYDIYRIHGEISNWNKNTDFLNRRLRNSYIEAIGENDERPYVKSNYGPSLIKSWADHMFDLPSKSFTNSTKDALFQKIKLWLLSIEPRQKTCAASIHSCDTPLDSEHYFNICTDMQSVDNFAEKKTKFKLEDVDEEFAMNLDCVDDQEQFIEWMQELEIRKMYSHVTEKPDYPNVVNQTCDKIFHDLNSTGIEFFDGSRSFSSTKSQFDTMQTEIVLLTPEMLLSAMQHSDFVNGFESIWTIEKAEELIHEFRLALKEETEKFKENRMSKMIRVTSRVLDNTVTTKLQSFSEKQTIHFVVNVHSLIVILFTIFVWSGAPLRSAFMFFVRDALTCLLFCFVCSTDGVIVLDTELIKYIIVLTLANLYFTTRSSFCTERLSRCIQREKRFPINSNFASLITVDTMTDSRQIQYFLSTVTKYQAAQDSYSNELFERFPKNWGCTSILIFPIVFVYWYFIDSNFDKICVSVLPSFCLAAGEELFAKNMFWKEREAMQAKQRLENEEQAESITGSSLEKLFAGNKPVSNTDKANIVKKSSIIRNQKPCLQDLSPGTYDVSNFMKYPHQASRIFREKIIGLYLRILKLRTLGVILCIPAILLIVISIGLLFIPVKRETLHTDSKQDDIFIEFEIFNFSTNWKIVNQNLKQFSEDIESIGTLYTISNWQKSFERFEQETNKNASAEWNILFKWINDEPINSAVTLFSEKSSGNQTIANPFKFRLRYGFDAKNETTVIEIVQKIDELLSKCSKNLSPKAVGVLYEHYHRIAVVWNLFAFNQLTTAGIFIILLSIITFIFAITPTIKATFLFSLLVVGTQIEVAALVHLFSLDHHQIYTNLALFAGFLAAWDPFCALLRYRRRILYKSETRRTPELASKRRVLLPIVATADIAQFFVLLITAFSILAIICSIVPELNIFFVPTVILIVIQIVAVFNSIIVSIATKQMFESEVRHYLHRDLRGSTTAVRVYNLVQKQRLASSLDEPQVELDEFSIKRSSPPCRYYAPPPKYSCKKRSRSSDEDEDSDPNQPGPSNRRSPKTGNKRVRGNGDNTELYIPNRYELIVSGKSVGGNTSAAWNGPGSTLEQNMNALEECFELGVDEYDFDEHDGDEGCELVQDMLDRERNLMNKRSTAQRRESRNIEKMKKSQENLDKEKSEEKISESKKNQDDSIESPNLPGTPANLPVDEPLPPVGRLYIVEHVLPEEYRRDPLTEPPSMEDCIRAHSDPNLPPHPRADQYPASFTRPMVEYCEDIYWTHRTGQLPPGLQVPRRPYDYYHITERTPPPEDLNWVPPAESPPIPIPQQAFDLLEERRRNHREQQDEAREGDLSDPEV
